PubChem BioAssay AID1259308 – NCATS | 2017

Aim: 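Candidate targets for better recombinant protein yield in mammalian cells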 (primary screen)
Cell system: human HEK293 embryonic kidney cells stably expressing firefly luciferase (HEK-CMV-Luc2-Hygro)
Reagent: single siRNA against human genes, 0.8 pmol siRNA per well
Timing: 72 h
Detection: 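Luciferase light (ONE-Glo) measured on one replicate plate set and viability (CellTiter-Glo) on the other, scaled to a negative control siRNA, with robust z-scores and luciferase per cell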
Scale: total luciferase, z-score: higher = more reporter protein produced
Call rule: 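Active when the median/MAD z-score for overall luciferase is greater than 3; a gene was taken forward for validation with new siRNAs if at least two of its three siRNAs passed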
Meaning of the calls: active = raised luciferase; inactive = no rise
The whole screen tested about 59,000 reagents; this is an unselected part. Over the whole deposit, about 1,510 (2.6%) got an active call. 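Calls use total luciferase alone and ignore viability, so some active siRNAs may act by altering cell number.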 Reagents against one gene are numbered here. Further read-outs or replicates are left out here.

{"Gene": "ZNF280D", "siRNA no.": 1, "total luciferase, z-score": 0.279, "activity call": "inactive"}
{"Gene": "ZNF280D", "siRNA no.": 2, "total luciferase, z-score": -0.0419, "activity call": "inactive"}
{"Gene": "ZNF280D", "siRNA no.": 3, "total luciferase, z-score": -0.963, "activity call": "inactive"}
{"Gene": "LINC02872", "siRNA no.": 1, "total luciferase, z-score": -0.335, "activity call": "inactive"}
{"Gene": "LINC02872", "siRNA no.": 2, "total luciferase, z-score": -0.629, "activity call": "inactive"}
{"Gene": "LINC02872", "siRNA no.": 3, "total luciferase, z-score": -0.59, "activity call": "inactive"}
{"Gene": "AMBP", "siRNA no.": 1, "total luciferase, z-score": -0.26, "activity call": "inactive"}
{"Gene": "AMBP", "siRNA no.": 2, "total luciferase, z-score": -2.62, "activity call": "inactive"}
{"Gene": "AMBP", "siRNA no.": 3, "total luciferase, z-score": -1.12, "activity call": "inactive"}
{"Gene": "NTMT2", "siRNA no.": 1, "total luciferase, z-score": -0.105, "activity call": "inactive"}
{"Gene": "NTMT2", "siRNA no.": 2, "total luciferase, z-score": -0.153, "activity call": "inactive"}
{"Gene": "NTMT2", "siRNA no.": 3, "total luciferase, z-score": -2.1, "activity call": "inactive"}
{"Gene": "CAP1", "siRNA no.": 1, "total luciferase, z-score": -0.831, "activity call": "inactive"}
{"Gene": "CAP1", "siRNA no.": 2, "total luciferase, z-score": -1.92, "activity call": "inactive"}
{"Gene": "CAP1", "siRNA no.": 3, "total luciferase, z-score": -0.318, "activity call": "inactive"}
{"Gene": "SLPI", "siRNA no.": 1, "total luciferase, z-score": -0.208, "activity call": "inactive"}
{"Gene": "SLPI", "siRNA no.": 2, "total luciferase, z-score": -0.278, "activity call": "inactive"}
{"Gene": "SLPI", "siRNA no.": 3, "total luciferase, z-score": 0.226, "activity call": "inactive"}
{"Gene": "RPL11", "siRNA no.": 1, "total luciferase, z-score": -2.74, "activity call": "inactive"}
{"Gene": "RPL11", "siRNA no.": 2, "total luciferase, z-score": -2.88, "activity call": "inactive"}
{"Gene": "RPL11", "siRNA no.": 3, "total luciferase, z-score": -2.52, "activity call": "inactive"}

2 consecutive reagents already listed, for reference:
{"Gene": "LINC02872", "siRNA no.": 1, "total luciferase, z-score": -0.335, "activity call": "inactive"}
{"Gene": "LINC02872", "siRNA no.": 2, "total luciferase, z-score": -0.629, "activity call": "inactive"}
